Here are results for 1 molecule from article PMC12592187.

Protein sequences, listed by entry. Tags and fused reporters are not part of them. Residues count along the entry.
UniProt Q9QZH6, residues 49-435: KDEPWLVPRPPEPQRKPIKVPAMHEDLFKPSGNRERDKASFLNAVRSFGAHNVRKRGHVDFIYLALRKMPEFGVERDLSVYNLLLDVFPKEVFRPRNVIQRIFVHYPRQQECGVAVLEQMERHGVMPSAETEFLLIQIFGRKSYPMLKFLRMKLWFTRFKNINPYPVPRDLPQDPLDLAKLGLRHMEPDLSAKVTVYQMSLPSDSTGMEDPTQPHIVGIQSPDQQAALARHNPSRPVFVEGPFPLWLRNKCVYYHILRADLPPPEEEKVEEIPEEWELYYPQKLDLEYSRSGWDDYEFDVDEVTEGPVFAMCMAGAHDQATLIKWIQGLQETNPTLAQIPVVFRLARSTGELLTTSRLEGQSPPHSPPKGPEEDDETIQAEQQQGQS

No constants are given. Whether binding was seen depends on the method and setting. In cells and extracts the contact can be indirect. Some results given as binding are weak or reduced against the parent protein; the word gives no strength.

For the assay, the target named is evolutionarily conserved signaling intermediate in Toll pathways (ECSIT), endogenous in RAW264.7 (mouse (endogenous in RAW264.7)) (UniProt Q9QZH6). Kind of assay: co-IP.

B1: TNF receptor-associated factor 6 (TRAF6), endogenous in RAW264.7 (protein, UniProt P70196 1-530)
chain: MSLLNCENSCGSSQSSSDCCAAMAASCSAAVKDDSVSGSASTGNLSSSFMEEIQGYDVEFDPPLESKYECPICLMALREAVQTPCGHRFCKACIIKSIRDAGHKCPVDNEILLENQLFPDNFAKREILSLTVKCPNKGCLQKMELRHLEDHQVHCEFALVNCPQCQRPFQKCQVNTHIIEDCPRRQVSCVNCAVSMAYEEKEIHDQSCPLANIICEYCGTILIREQMPNHYDLDCPTAPIPCTFSVFGCHEKMQRNHLARHLQENTQLHMRLLAQAVHNVNLALRPCDAASPSRGCRPEDPNYEETIKQLESRLVRQDHQIRELTAKMETQSMYVGELKRTIRTLEDKVAEMEAQQCNGIYIWKIGNFGMHLKSQEEERPVVIHSPGFYTGRPGYKLCMRLHLQLPTAQRCANYISLFVHTMQGEYDSHLPWPFQGTIRLTILDQSEALIRQNHEEVMDAKPELLAFQRPTIPRNPKGFGYVTFMHLEALRQGTFIKDDTLLVRCEVSTRFDMGGLRKEGFQPRSTDAGV
As to B1, the binding result is given as “binds”.
